Source: PubChem BioAssay AID248 (DTP/NCI, 2004)
The list does not hold the whole screen: it is rich in T/C values a quarter to a half above the control, in often repeated tests (any T/C) and in doses without a T/C. Other doses and runs of a compound stand elsewhere. T/C: endpoint of the treated group in % of that of the vehicle group. Some entries give survivors of the animals treated and no T/C: the source files T/C as zero there, which appears to mark a toxic dose or a test without result, not a measured value. Some doses without a T/C left all or most animals alive at the check, yet need not have been tolerated: the source hardly ever lists a survival T/C far under the control, and the zero likely stands for such cases as well. Survivors were counted at the toxicity check, usually on the fifth day, unless a day is given; later deaths do not show. Schedule codes are those of the source, taken here to give the interval after Q, in days (D) or hours (H), and the number of doses after X. Some entries were tested several times; the values are given in rising order. Some schedules carry Z or #; the key to these is not given. Where survival is the endpoint, this PubChem deposit counts one and a half times the control or more as active, and values a quarter to a half above the control carry no call in these data; other NCI protocols may use other cut-offs. Some T/C values are followed by the survivors on the day toxicity was checked, most often the fifth; where none is given, no animal had died by that day.

Test system: L1210 leukemia ip in BDF1 mice, survival T/C
Experiment: NCI In Vivo Anticancer Drug Screen. Data for tumor model L1210 Leukemia (intraperitoneal) in B6D2F1 (BDF1) mice
Settings: T/C endpoint: mean survival time, higher T/C = longer survival
[1] = dose: 100.0 mg/kg/injection, schedule: Q04DX003 (ip), vehicle: saline with Tween-80
[2] = dose: 200.0 mg/kg/injection, schedule: Q04DX003 (ip), vehicle: saline with Tween-80
[3] = dose: 400.0 mg/kg/injection, schedule: Q04DX003 (ip), vehicle: saline with Tween-80
[4] = dose: 200.0 mg/kg/injection, schedule: Q01DX009 (ip), vehicle: saline with Tween-80
[5] = dose: 400.0 mg/kg/injection, schedule: Q01DX009 (ip), vehicle: saline with Tween-80
[6] = dose: 100.0 mg/kg/injection, schedule: Q04DX003 (ip), vehicle: Klucel (hydroxypropylcellulose) (HPC)
[7] = dose: 400.0 mg/kg/injection, schedule: Q04DX003 (ip), vehicle: Klucel (hydroxypropylcellulose) (HPC)
[8] = dose: 300.0 mg/kg/injection, schedule: Q01DX001 (ip), vehicle: saline
[9] = dose: 200.0 mg/kg/injection, schedule: Q01DX001 (ip), vehicle: saline
[10] = dose: 400.0 mg/kg/injection, schedule: Q01DX001 (ip), vehicle: saline
[11] = dose: 400.0 mg/kg/injection, schedule: Q01DX009 (ip), vehicle: Klucel (hydroxypropylcellulose) (HPC)
[12] = dose: 200.0 mg/kg/injection, schedule: Q01DX001 (ip), vehicle: carboxymethylcellulose (CMC)
[13] = dose: 400.0 mg/kg/injection, schedule: Q01DX001 (ip), vehicle: carboxymethylcellulose (CMC)

In the case of `O=c1n(-c2ccccc2)c(=O)n2n1C1/C=C\C=C/C2C2CCC21` (stereo unspecified), the survivor count (dose: 50.0 mg/kg/injection, schedule: Q01DX009 (ip), vehicle: saline with Tween-80) is reported as 4 of 4, the survivor count [1] is reported as 6 of 6 and the survivor count [2] is reported as 1 of 6. The survivor count [3] was 0 of 6.
For `Nc1nc(=O)n(CC(=O)c2cccs2)cc1F`, the survivor count [4] was 1 of 6 and 3 of 6 and the survivor count [5] was 0 of 6.
In the case of `ClC12CC3CC(CC(C3)C1)C2`, the survivor count (dose: 100.0 mg/kg/injection, schedule: Q01DX009 (ip), vehicle: acetone) is reported as 6 of 6 and the survivor count (dose: 400.0 mg/kg/injection, schedule: Q01DX009 (ip), vehicle: acetone) is reported as 6 of 6.
`C1CN(SSN2CCOCC2)CCO1` was tested, and the survivor count [6] was 1 of 3 and the survivor count [7] was 0 of 3.
`NCCCOc1ccc([N+](=O)[O-])cc1Cl` was tested, and the survivor count [8] was 1 of 6 and the survivor count (dose: 400.0 mg/kg/injection, schedule: Q04DX003 (ip), vehicle: saline) was 0 of 6.
`CCOC(=O)C1C(=O)NCC1c1ccccc1` (stereo unspecified) was tested, and the survivor count (dose: 100.0 mg/kg/injection, schedule: Q01DX009 (ip), vehicle: saline) was 3 of 3.
`CC(=O)Nc1ccc2c(ccc3cccc[n+]32)c1` was tested, and the survivor count (dose: 40.0 mg/kg/injection, schedule: Q01DX001 (ip), vehicle: saline) was 1 of 4, the survivor count (dose: 80.0 mg/kg/injection, schedule: Q01DX001 (ip), vehicle: saline) was 0 of 4 and the survivor count (dose: 100.0 mg/kg/injection, schedule: Q01DX001 (ip), vehicle: saline) was 0 of 4. For the same compound, the survivor count [9] was 0 of 4 and the survivor count [10] was 0 of 4.
For `O/N=c1\ncn(O)c2nc[nH]c12`, the T/C (dose: 130.0 mg/kg/injection, schedule: Q01DX009 (ip), vehicle: saline) was 138 % of control and the T/C (dose: 200.0 mg/kg/injection, schedule: Q01DX009 (ip), vehicle: saline) was 143 % of control [5 of 6 alive].
`O=C(O)/C(=C\c1ccc(Cl)cc1)c1ccc(Cl)cc1` was tested, and the survivor count [11] was 6 of 6.
With `O=C(Nc1ccc(C2=NCCN2)cc1)c1cccc(C(=O)Nc2ccc(C3=NCCN3)cc2)c1Cl` the T/C (dose: 12.5 mg/kg/injection, schedule: Q01DX Z (ip), vehicle: carboxymethylcellulose (CMC)) was 130 % of control, the survivor count (dose: 50.0 mg/kg/injection, schedule: Q01DX Z (ip), vehicle: carboxymethylcellulose (CMC)) was 2 of 6 and the survivor count (dose: 75.0 mg/kg/injection, schedule: Q01DX Z (ip), vehicle: carboxymethylcellulose (CMC)) was 0 of 6. For the same compound, the survivor count (dose: 100.0 mg/kg/injection, schedule: Q01DX Z (ip), vehicle: carboxymethylcellulose (CMC)) was 0 of 6.
With `CCC(C(=O)O)N1C(=O)C2C3C=CC(C3)C2C1=O` (stereo unspecified) the survivor count [3] was 2 of 3.
For `Cc1cc(C(=O)NC(CCC(=O)O)C(=O)O)cc(C)c1N(C)Cc1cnc2nc(N)nc(N)c2n1` (stereo unspecified), the T/C (dose: 6.25 mg/kg/injection, schedule: Q01DX009 (ip), vehicle: saline) was 143 % of control, the T/C (dose: 6.25 mg/kg/injection, schedule: Q01DX009 (ip), vehicle: sodium bicarbonate) was 126 % of control and the T/C (dose: 12.5 mg/kg/injection, schedule: Q01DX009 (ip), vehicle: sodium bicarbonate) was 146 % of control [9 of 10 alive]. For the same compound, the T/C (dose: 25.0 mg/kg/injection, schedule: Q01DX009 (ip), vehicle: saline) was 125 % of control, the T/C (dose: 25.0 mg/kg/injection, schedule: Q01DX009 (ip), vehicle: sodium bicarbonate) was 136 % of control and the survivor count (dose: 50.0 mg/kg/injection, schedule: Q01DX009 (ip), vehicle: saline) was 5 of 6.
With `CC(=O)OC1CCC2(C)C(CCC3C2CC(OC(C)=O)C2(C)C3CCC2C2(C)SCCS2)C1` (stereo unspecified) the survivor count (dose: 200.0 mg/kg/injection, schedule: Q04DX002 (ip), vehicle: Klucel (hydroxypropylcellulose) (HPC)) was 3 of 3.
`O=S(=O)(OC1CCCCC1Br)c1ccc(Br)cc1` (stereo unspecified) was tested, and the survivor count [4] was 3 of 3.
In the case of `O=C(CBr)Nc1ccc(C(=O)O)c(O)c1`, the survivor count [6] is reported as 0 of 3, the survivor count (dose: 200.0 mg/kg/injection, schedule: Q04DX003 (ip), vehicle: Klucel (hydroxypropylcellulose) (HPC)) is reported as 0 of 3 and the survivor count [7] is reported as 0 of 3.
`OCc1cc(Cl)cc(Cl)c1O` was tested, and the survivor count [4] was 2 of 6 and the survivor count [5] was 2 of 6.
`CC1(C)C2CCC(CN=C(N)CSS(=O)(=O)O)C1C2` (stereo unspecified) was tested, and the T/C (dose: 12.5 mg/kg/injection, schedule: Q04DX002 (ip), vehicle: saline with Tween-80) was 127 % of control and the survivor count (dose: 25.0 mg/kg/injection, schedule: Q04DX002 (ip), vehicle: saline with Tween-80) was 1 of 3.
In the case of `Cc1ccc([P+](Cc2ccccc2)(c2ccc(C)cc2)c2ccc(C)cc2)cc1`, the survivor count [8] is reported as 1 of 6.
In the case of `O=C(Nc1cccc(C2=NCCN2)c1)c1ccc(C(=O)Nc2cccc(C3=NCCN3)c2)c(Cl)c1`, the survivor count (dose: 12.0 mg/kg/injection, schedule: Q01DX Z (ip), vehicle: water) is reported as 0 of 6, the survivor count (dose: 25.0 mg/kg/injection, schedule: Q01DX Z (ip), vehicle: water) is reported as 0 of 6 and the survivor count (dose: 50.0 mg/kg/injection, schedule: Q01DX Z (ip), vehicle: water) is reported as 0 of 6. The survivor count (dose: 100.0 mg/kg/injection, schedule: Q01DX Z (ip), vehicle: water) was 0 of 6.
With `CCCCCCC[CH2][Sn]([CH2]C)([CH2]C)[O]C(C)=O` the survivor count (dose: 100.0 mg/kg/injection, schedule: Q01DX001 (ip), vehicle: saline with Tween-80) was 0 of 6, the survivor count (dose: 200.0 mg/kg/injection, schedule: Q01DX001 (ip), vehicle: saline with Tween-80) was 0 of 6 and the survivor count (dose: 400.0 mg/kg/injection, schedule: Q01DX001 (ip), vehicle: saline with Tween-80) was 0 of 6.
With `N#CC1=C(C#N)C(=O)NC1=O` the survivor count [1] was 6 of 6, the survivor count [2] was 0 of 6 and the survivor count [3] was 0 of 6.
`CCCN(CCC)C[Si](C)(C)C` was tested, and the survivor count (dose: 100.0 mg/kg/injection, schedule: Q01DX001 (ip), vehicle: carboxymethylcellulose (CMC)) was 0 of 4, the survivor count [12] was 0 of 4 and the survivor count [13] was 0 of 4.
In the case of `[CH3][Pb]([CH3])([CH3])[O]P(=O)(O)c1ccccc1`, the survivor count (dose: 25.0 mg/kg/injection, schedule: Q04DX002 (ip), vehicle: saline) is reported as 3 of 3, the survivor count (dose: 50.0 mg/kg/injection, schedule: Q04DX002 (ip), vehicle: saline) is reported as 0 of 3 and the survivor count (dose: 100.0 mg/kg/injection, schedule: Q04DX002 (ip), vehicle: saline) is reported as 0 of 3. The survivor count (dose: 200.0 mg/kg/injection, schedule: Q04DX002 (ip), vehicle: saline) was 0 of 3 and the survivor count (dose: 400.0 mg/kg/injection, schedule: Q04DX002 (ip), vehicle: saline) was 0 of 3.
`CSC(N(C)c1ccccc1)=[N+](C)c1ccccc1` was tested, and the survivor count [9] was 3 of 6 and the survivor count [10] was 0 of 6.
`CC(C)CCCC(C)C1CCC2C3=CC=C4CC(OC(=O)c5cc([N+](=O)[O-])cc([N+](=O)[O-])c5)CCC4(C)C3CCC21C` (stereo unspecified) was tested, and the survivor count (dose: 400.0 mg/kg/injection, schedule: Q01DX001 (ip), vehicle: other) was 3 of 3.
For `OCC1CCN1C(c1ccccc1)c1ccccc1` (stereo unspecified), the survivor count (dose: 400.0 mg/kg/injection, schedule: Q04DX002 (ip), vehicle: saline with Tween-80) was 1 of 3.
With `OCCSSSCCO` the survivor count (dose: 300.0 mg/kg/injection, schedule: Q01DX001 (ip), vehicle: other) was 1 of 6.
With `CC(C)=C(CSC#N)S(=O)(=O)c1ccc(C)cc1` the survivor count (dose: 100.0 mg/kg/injection, schedule: Q01DX009 (ip), vehicle: Klucel (hydroxypropylcellulose) (HPC)) was 0 of 6, the survivor count (dose: 200.0 mg/kg/injection, schedule: Q01DX009 (ip), vehicle: Klucel (hydroxypropylcellulose) (HPC)) was 0 of 6 and the survivor count [11] was 0 of 6.
With `NC(CC(=O)O)C(=O)OCc1ccccc1` (stereo unspecified) the survivor count [11] was 1 of 3.
With `c1ccc2nc(OCCN3CC3)ccc2c1` the survivor count [12] was 2 of 6 and the survivor count [13] was 0 of 6.
